Assay results reported in PubChem BioAssay AID652054 (National Center for Advancing Translational Sciences (NCATS), 2013).
Out of some 360,000 compounds screened, about 9,100 (2.5%) were called active. The inconclusive results got no clear call from the source; some entries with a clear call stand among them for comparison. No stated cut-off is given here; in the data, active means max response below about -50%; inconclusive means no clear call, values can overlap the other calls; inactive means above that.

Protein sequences, listed by entry. Tags and fused reporters are not part of them.
UniProt P35462, whole entry, looked up: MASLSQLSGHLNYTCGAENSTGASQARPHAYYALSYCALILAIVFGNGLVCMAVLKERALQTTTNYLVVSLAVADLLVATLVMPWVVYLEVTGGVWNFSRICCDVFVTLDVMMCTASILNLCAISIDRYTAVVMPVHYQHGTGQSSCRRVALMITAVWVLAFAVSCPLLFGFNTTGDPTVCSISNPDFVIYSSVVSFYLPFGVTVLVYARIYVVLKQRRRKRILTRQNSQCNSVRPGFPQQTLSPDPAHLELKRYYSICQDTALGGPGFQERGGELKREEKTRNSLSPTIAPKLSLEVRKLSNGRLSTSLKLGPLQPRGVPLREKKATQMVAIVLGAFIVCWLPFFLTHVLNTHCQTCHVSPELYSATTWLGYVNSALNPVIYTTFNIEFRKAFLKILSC

target: D(3) dopamine receptor (Homo sapiens) (UniProt P35462); assay: qHTS of D3 Dopamine Receptor Antagonist: qHTS; conditions: D3R cells, DiscoveRx beta-arrestin luminescence, antagonist mode; hits give low values
Excerpt: D3 DARs represent a very important target for the treatment of several neuropsychiatric disorders. Indeed, one of the most promising therapeutic applications for the D3 DAR is in the area of addiction and related disorders. […] These findings have been observed with a number of addictive substances including cocaine, amphetamine, nicotine, and alcohol. […] Antagonism of the D3 DAR may also be therapeutic in the treatment of schizophrenia or psychosis. […] Since the D3 DAR is expressed in areas of the CNS associated with the control of mood and emotion, it has been hypothesized that selective antagonism of the D3 DAR may be effective in treating psychosis without inducing the motor side effects typically seen with D2 DAR antagonists.
This part of the project aims to discover novel antagonist.
NIH Chemical Genomics Center [NCGC]
NIH Molecular Libraries Probe Centers Network [MLPCN]
Assay Submitter (PI): David Sibley, NINDS
Freshly passaged cells are plated in 1536 well white, solid bottom plates at a density of 1500 cells/well in 3microl of complete media. After an overnight incubation at 37 degrees C in 5% CO2, cells are loaded with 23nl of test compound from the compound library (as well as dopamine controls) using a 1536 pintool and incubated at 37 degrees C for 90 minutes. Two microliters of DiscoveRx reagent is then added to all cells, and they are incubated for an additional 30 - 60 minutes at room temperature. Following incubation, luminescence is measured on a ViewLux CCD-based luminometer reader using a 20 sec exposure time.
On the % scale 0 is the no-effect control and ±100 the full control effect.

Structure (SMILES)	max response, negative = inhibition
COc1ccccc1OCCCCN1CCC(C)CC1	inconclusive: -48%
COc1ccc(N2CC(C(=O)Nc3ccc(S(=O)(=O)N4CCCCC4)cc3)CC2=O)cc1 (configuration not stated)	inconclusive: -42.3%
COc1ccc(/C=N/Nc2ccc(C(F)(F)F)cc2[N+](=O)[O-])cc1	inconclusive: -34.3%
Cc1cc(C)cc(NC(=S)N2CCN(S(C)(=O)=O)CC2)c1	inconclusive: -33.8%
O=C1C(Cl)=C(N2CCOCC2)C(=O)N1c1ccc(Br)cc1	active: -69.2%
COc1cc(/C=N/NC(=O)CSc2ccccn2)ccc1O	inactive: 8.2%
O=C(O)c1oc2ccccc2c1CN1CCN(c2ccccc2)CC1	inconclusive: -30%
O=C(NNC(=S)NC(=O)c1cccnc1)c1ccccc1	inconclusive: -38.7%
N#CC1=C(N)Oc2n[nH]c(-c3cccs3)c2C1c1cccs1 (configuration not stated)	inconclusive: -32.4%
CCC(C)(C(=O)NC1CCCC1)N(Cc1ccco1)C(=O)Cc1cccs1 (configuration not stated)	inconclusive: -47.5%
CCN(CC)CCNC(=O)c1ccc(Sc2ccc(Cl)cc2)c(NC(C)=O)c1	active: -76.9%
CCOC(=O)c1c(-c2ccc(OC)cc2)csc1NC(=O)CNCc1ccco1	inactive: 44.8%
NC(=O)C(c1ccccc1)c1ccc(C(=O)c2ccccc2)cc1 (configuration not stated)	inactive: -6.86%
N#Cc1ccc2sn(-c3ccccc3)c(=O)c2c1	inconclusive: -33.6%
Cc1cc(Br)cn2c(Cc3ccsc3)c(-c3ccccc3)nc12	inconclusive: -41.5%
O=C1CCC[C@H]2c3[nH]c4ccccc4c3CCN12	active: -51%
Cc1ccc(CN2CCCNC2=O)cc1	inactive: 11.5%
CCOc1ccc(N(Cc2cc3cc(OC)ccc3[nH]c2=O)C(=O)C2CCCO2)cc1 (configuration not stated)	inconclusive: -41.4%
COc1ccc(NC(=O)c2cc(F)cc(F)c2)cc1Cl	inconclusive: -36.6%
O=C(NC(c1ccccc1)c1cnccn1)C1CCN(Cc2ccc(Cl)c(Cl)c2)CC1 (configuration not stated)	inconclusive: -45.7%
Cc1c(N2C(=O)/C(=C3\C(=O)N(CC(=O)O)c4ccccc43)SC2=S)c(=O)n(-c2ccccc2)n1C	inactive: -27.3%
C/C(=N\NC(=O)CCc1c[nH]c2ccccc12)c1ccc([N+](=O)[O-])cc1	inconclusive: -46.5%

Structure (SMILES)	max response, negative = inhibition
Cc1ccc(S(=O)(=O)Nc2cccc(C(=O)NCc3cccnc3)c2)cc1F	inactive: 19.4%
O=S1(=O)C=C(Sc2nc3ccccc3s2)c2ccccc21	active: -97.7%
O=C(CCCCCn1nnc2ccccc2c1=O)Nc1ccccc1F	inactive: 14%
O=C1c2cccc3cccc(c23)C(=O)N1CC1CCN(CC(O)COc2ccc3ccccc3c2)CC1 (configuration not stated)	inconclusive: -44.2%
Cc1ccc(C(C)C)c(OCCCNCc2cccnc2)c1	inconclusive: -37.3%
O=C(Nc1ccc2c(c1)C(=O)N(CC1CCCO1)C2=O)c1ccccc1Br (configuration not stated)	inactive: 8.27%
CCCCCCn1cc(CN2CC(N3CCCC3)CS2(=O)=O)nn1 (configuration not stated)	inactive: 19.6%
COc1cc(/C=C2\SC(=S)N(Nc3ccccc3)C2=O)ccc1O	inconclusive: -38.7%
CCOC(=O)c1cccc(NC(=O)CNS(=O)(=O)c2cccs2)c1	inconclusive: -31.2%
O=C(NC1CCCCC1)c1ccc2ccccc2c1	inactive: 0%
CC1CCN(S(=O)(=O)c2ccc(F)c(C(=O)O)c2)CC1	inconclusive: -45.3%
C=CCOC(=O)C1=C[C@@H](c2ccc(Br)cc2)C[C@@H](OCCCCO)O1	inconclusive: -39.9%
CCC(O)c1cnc(OCc2ccccc2)nc1OCc1ccccc1 (configuration not stated)	inactive: -17.2%
COc1ccccc1-c1cnc(C(O)c2ccc(F)cc2C)[nH]1 (configuration not stated)	inactive: 13.1%
COC(=O)C[C@@H]1OC[C@H](CO)N1S(=O)(=O)c1ccc(C)cc1	inconclusive: -36%
O=C(/C=C/c1ccc2c(c1)OCO2)N1CCOCC1	inactive: 43.3%
N#Cc1cc2ccccc2nc1SCc1cccnc1	active: -83%
COC(=O)C[C@@H]1C=C[C@@H](NC(=O)c2ccccc2F)[C@@H](CO)O1	inactive: 9.18%
COCC(C)NCC(=O)NC(C)CCc1ccccc1 (configuration not stated)	inconclusive: -33%
COC(=O)C1CSC(C(=O)OC)N1C(=O)Nc1ccc(Cl)cc1 (configuration not stated)	inactive: -7.96%
O=C(Nc1nccs1)c1ccc(NC(=O)C2CC=CCC2C(=O)O)cc1 (configuration not stated)	inconclusive: -31.9%
Cc1nn(CC(=O)NCc2ccc(C(=O)O)cc2)c(C)c1[N+](=O)[O-]	inconclusive: -32.9%
O=C(Nc1ccc(F)cc1)C(CCc1ccccc1)N1CCN(Cc2c(F)cccc2Cl)CC1 (configuration not stated)	inactive: -15.2%

Structure (SMILES)	max response, negative = inhibition
CCSc1nc(-c2ccc(OC)cc2)n(-c2nc3ccccc3s2)n1	inactive: -15.6%
CCCn1c(SCC(=O)NC(C)(C)C)nnc1C(C)C	inconclusive: -32.7%
CCOC(=O)Cn1c(=O)cc(C)c2ccccc21	inactive: -0.954%
COc1cc(SSc2cc(OC)cc([N+](=O)[O-])c2N)c(N)c([N+](=O)[O-])c1	active: -77%
COc1ccc(S(=O)(=O)N(CC(=O)NC2CC2)C2CCCCC2)cc1Cl	inconclusive: -41.9%
COc1ccc(CC(=O)Nc2ccc(S(=O)(=O)N3CCC(C)CC3)cc2)c(OC)c1	inactive: 25.8%
O=C(CCN1CCN(c2ccccc2)CC1)N/N=C/c1ccccc1OC(F)F	active: -69.6%
O=[N+]([O-])c1ccccc1S(=O)(=O)N1CCN(C2CCN(Cc3ccccc3)CC2)CC1	active: -76.5%
Fc1ccc(Nc2nc(NCc3cccs3)nc3ccsc23)cc1	inactive: 50.1%
O=C(c1ccco1)N(Cc1cccc([N+](=O)[O-])c1)c1ccc(Br)cc1	inconclusive: -34.4%
CCNc1ccc(C(=O)OCC(=O)NCc2ccccc2Cl)cc1[N+](=O)[O-]	inactive: 3.42%
O=c1c2c(O)cc(O)cc2oc2c(O)ccc(O[C@H]3O[C@@H](CO)[C@H](O)[C@@H](O)[C@@H]3O)c12	inconclusive: -40.7%
OC(CNCCc1ccc(Cl)cc1Cl)COc1ccccc1 (configuration not stated)	inconclusive: -44.3%
COc1cc2[nH]cc(C(=O)NCc3cccs3)c(=O)c2cc1OC	inconclusive: -39.9%
c1ccc(CCNCCCOc2cccc3ccccc23)cc1	active: -67.1%
CCCCN1C(=O)NC(NC(C)=O)(C(F)(F)F)C1=O (configuration not stated)	inconclusive: -42%
C/C(=N\NC(=O)Cc1ccccc1Cl)c1cccnc1	inactive: 2.12%
CN1CCN(C(=O)c2ccc(N3CCCC3=O)cc2)CC1	inconclusive: -36.2%
Cc1ccc(NC(=O)Cn2cnc3c(cnn3C(C)(C)C)c2=O)cc1	inconclusive: -38.7%
O=C1c2ccccc2C(=O)N1CCc1ccccn1	inconclusive: -31.2%
CCOc1ccc(-n2c(=O)c3sccc3n(CC(=O)NCC3CCCO3)c2=O)cc1 (configuration not stated)	inactive: -5.28%
Cc1ccc(SC(C)C(=O)Nc2cccnc2)cc1 (configuration not stated)	inconclusive: -40.5%
CSc1ncccc1C(=O)NC1CCCCCCC1	inconclusive: -38.1%

A second format for 3 compounds above.
Structure (SMILES) | max response, negative = inhibition
CCSc1nc(-c2ccc(OC)cc2)n(-c2nc3ccccc3s2)n1 | inactive: -15.6%
CCCn1c(SCC(=O)NC(C)(C)C)nnc1C(C)C | inconclusive: -32.7%
CCOC(=O)Cn1c(=O)cc(C)c2ccccc21 | inactive: -0.954%

Following part:

Structure (SMILES)	max response, negative = inhibition
COc1ccccc1-c1noc2ncnc(Nc3cccc(C)c3C)c12	inactive: 4.08%
COC(=O)CNC(=O)C(Cc1c[nH]c2ccccc12)NC(=O)OC(C)(C)C (configuration not stated)	inconclusive: -34.8%
Cc1ccccc1-n1c(CSC(=N)N)nc2ccccc2c1=O	active: -72.2%
O=C(NCc1cccnc1)c1cc(C2CCCN(C(=O)c3cccs3)C2)on1 (configuration not stated)	active: -123%
O=S(=O)(c1cccs1)N1CN(Cc2ccccc2)c2nc3ccccc3nc21	inconclusive: -37.9%
O=C(c1ccco1)N1N=C(c2cccs2)CC1c1cc([N+](=O)[O-])ccc1O (configuration not stated)	inconclusive: -41.4%
Cc1cc(C(=O)OCC(=O)NC(=O)c2cccn2C)c2ccccc2n1	inactive: 25.8%
Cc1sc(NC(=O)C2C3CCC(O3)C2C(=O)O)c(C(=O)OC(C)C)c1-c1ccc(Cl)cc1 (configuration not stated)	inconclusive: -40.7%
CN1C(=O)C2(CCCCC2)C1c1ccccc1 (configuration not stated)	active: -76.5%
COc1cccc(NC(=O)C(Sc2nnc(Nc3ccccc3C)s2)c2ccccc2)c1 (configuration not stated)	active: -54.2%
O=C(NNC(=O)c1ccccc1F)c1ccc(-c2ccccc2Cl)o1	inactive: -5.58%
O=C(NCc1ccccc1)c1cc(C2CCCCN2C(=O)c2ccccc2)on1 (configuration not stated)	inconclusive: -41%
Cc1ccc(S(=O)(=O)NC(=O)COc2ccccc2)cc1	inactive: 7.65%
CCn1c(N2CCN(C(=S)NCCc3ccccc3)CC2)nc2ccccc21	inconclusive: -41.1%
COCCNC(=O)CCC1CCN(C/C=C/c2ccccc2OC)CC1	active: -55.7%
O=C(COc1ccc(Cl)cc1)Nc1ccc(Cc2ccncc2)cc1	inactive: -24.7%
O=C(Cc1cccs1)NCc1ccc(Cl)cc1Cl	inactive: -17%
COc1ccc(C(=O)COC(=O)CCNS(=O)(=O)c2ccccc2)c(OC)c1	inactive: 6.83%
COc1ccc(OCC(=O)NNC(=O)c2ccccn2)cc1	active: -81.7%
Cc1ccc(-c2nc3ncccn3c2Nc2ccc3c(c2)OCCO3)o1	inconclusive: -32%
CCS(=O)(=O)c1ncc(Cl)c(C(=O)Nc2ccc(S(=O)(=O)N3CCC(C)CC3)cc2)n1	active: -61.1%
CSC(=NS(=O)(=O)c1ccccc1)SC	inconclusive: -35.4%
CCN(c1ccccc1)S(=O)(=O)c1ccc(NC(=S)NC(=O)c2cccs2)cc1	active: -74.3%
